At least one compound was matched to its structure with a doubt left.
Experiments:
Conditions in all cases: comparison in words
S. aureus PBP2 = target: T1, S. aureus PBP2 (Staphylococcus aureus, UniProt Q9R744); assay: IC50 for transglycosylase inhibition, S. aureus PBP2, [14C]-GlcNAc-labeled lipid II analogue; assay type: biochemical
T1 construct: made in house
T1 sequence (Q9R744 1-727): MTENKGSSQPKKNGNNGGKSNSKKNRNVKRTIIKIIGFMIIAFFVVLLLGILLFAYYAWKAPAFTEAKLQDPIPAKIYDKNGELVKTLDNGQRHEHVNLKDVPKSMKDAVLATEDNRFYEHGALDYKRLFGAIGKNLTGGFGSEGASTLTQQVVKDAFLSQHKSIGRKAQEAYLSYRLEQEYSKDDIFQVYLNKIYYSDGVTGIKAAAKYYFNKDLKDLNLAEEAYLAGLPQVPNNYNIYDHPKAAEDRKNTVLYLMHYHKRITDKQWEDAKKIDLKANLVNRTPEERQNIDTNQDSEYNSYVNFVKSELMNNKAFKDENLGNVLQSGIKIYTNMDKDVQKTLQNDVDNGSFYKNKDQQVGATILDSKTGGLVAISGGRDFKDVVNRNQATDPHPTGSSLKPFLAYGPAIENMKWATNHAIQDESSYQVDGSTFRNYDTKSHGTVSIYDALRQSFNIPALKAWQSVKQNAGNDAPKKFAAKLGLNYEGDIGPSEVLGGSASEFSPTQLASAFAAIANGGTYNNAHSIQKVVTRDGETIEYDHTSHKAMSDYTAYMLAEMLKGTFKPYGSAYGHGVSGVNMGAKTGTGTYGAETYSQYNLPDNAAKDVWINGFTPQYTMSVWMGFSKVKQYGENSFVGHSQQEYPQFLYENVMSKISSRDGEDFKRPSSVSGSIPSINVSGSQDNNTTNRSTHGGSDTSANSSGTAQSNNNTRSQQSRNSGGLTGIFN
Description: S. aureus PBP2 was over-expressed and purified as described^4,5. The IC50s for moenomycin and neryl compounds were carried out using the following reaction condition: (0-50 μM) and PBP2 (final concentration 30 nM) were incubated in Eppendorf tubes containing 9 μL of buffer [(50 mM HEPES buffer, 50 mM MOPS, 50 mM MES, 50 mM AcOH) at pH 5.0, 10 mM CaCl2, 20% DMSO (v/v), 250 unit/mL penicillin G] for 30 min. The reaction was initiated by adding 4 μM [^14C]-GlcNAc-labeled lipid II analogue^4 (specific activity=101 cpm/pmol) and quenched after 80 min with 10 μL of ice-cold 10 mM Tris (pH=8.0) containing 0.2% Triton X-100. The reaction mixture was immediately spotted on cellulose chromatography paper (3MM Whatmann). Products and starting material were separated using chromatography (isobutryic acid:1 N NH4OH=5:3) and quantitated by scintillation counting. The data were fit using Prism, as described^3,4.

[1] = test system: E. faecalis, bacterial strain 29212; assay: MIC, standard microdilution assay, E. faecalis; assay type: cell-based, Enterococcus faecalis
From the text: (§1) MIC values (μg/mL) were obtained using a standard microdilution assay.

[2] = test system: S. aureus, bacterial strain 29213; assay: MIC, standard microdilution assay, S. aureus; assay type: cell-based, Staphylococcus aureus
From the text: as §1

**Q.** How did the “inhibitory activity against TGase from S. aureus relative to moenomycin A” value (S. aureus PBP2) turn out when `CC(=O)NC1[C@H](O[C@@H]2C(CO[C@@H]3OC(CO)[C@@H](O)[C@H](O)C3O)O[C@@H](OC3[C@@H](OP(=O)(O)OC[C@@H](OC/C=C(/C)CCC=C(C)C)C(=O)O)OC(C(N)=O)[C@@](C)(O)[C@@H]3OC(N)=O)C(NC(C)=O)[C@H]2O)OC(C)[C@@H](O[C@@H]2OC(C(=O)NC3=C(O)CCC3=O)[C@H](O)[C@H](O)C2O)[C@@H]1O` (stereo partly drawn) [compound 15] was run?
**A.** Its value is “comparable to that of moenomycin A”.

**Q.** What about the “MIC against E. faecalis relative to moenomycin A” value [1] of the same molecule?
**A.** The value was “several orders of magnitude higher than for moenomycin A”.

**Q.** And the “MIC against S. aureus relative to moenomycin A” value [2]?
**A.** Its value is “several orders of magnitude higher than for moenomycin A”.

From US8604004B2, “Moenomycin analogs, methods of synthesis, and uses thereof” (President and Fellows of Harvard College, priority 2007, dated 2013)
